Results are given in words; binding and its absence hold for the method and conditions named. In cells and extracts the contact can be indirect. These calls come from enrichment with a bait or labelling near it, and not all partners need be listed. Sequences can lack the tags named with a protein.
T1: full-length PTP1B^WT with an N-terminal myc-tag (UniProt P18031)
T1 sequence: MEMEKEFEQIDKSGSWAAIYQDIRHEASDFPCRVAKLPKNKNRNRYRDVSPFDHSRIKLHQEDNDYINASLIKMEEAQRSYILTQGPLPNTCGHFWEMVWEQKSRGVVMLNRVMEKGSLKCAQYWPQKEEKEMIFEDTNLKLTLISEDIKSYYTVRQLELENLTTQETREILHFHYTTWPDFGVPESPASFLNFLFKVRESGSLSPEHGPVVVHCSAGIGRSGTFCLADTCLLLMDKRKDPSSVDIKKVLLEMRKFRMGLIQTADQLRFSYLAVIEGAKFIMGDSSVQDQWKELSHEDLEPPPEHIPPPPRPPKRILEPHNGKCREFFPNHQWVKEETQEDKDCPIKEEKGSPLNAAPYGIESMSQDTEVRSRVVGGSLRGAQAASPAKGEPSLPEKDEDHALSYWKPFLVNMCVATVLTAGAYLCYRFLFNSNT


Target: T1, full-length PTP1B^WT with an N-terminal myc-tag
Assay: affinity purification with mass spectrometry; myc-tagged PTP1B^WT or PTP1B^PRD immunoprecipitated from HEK 293 cell lysates; enriched proteins identified by mass spectrometry proteomics

Row | binding | Binder
1 | binds | TMED10 (protein, UniProt P49755 32-219) ISFHLPINSRKCLREEIHKDLLVTGAYEISDQSGGAGGLRSHLKITDSAGHILYSKEDATKGKFAFTTEDYDMFEVCFESKGTGRIPDQLVILDMKHGVEAKNYEEIAKVEKLKPLEVELRRLEDLSESIVNDFAYMKKREEEMRDTNESTNTRVLYFSIFSMFCLIGLATWQVFYLRRFFKAKKLIE
2 | binds | FAF2 (protein, UniProt Q96CS3 1-445) MAAPEERDLTQEQTEKLLQFQDLTGIESMDQCRHTLEQHNWNIEAAVQDRLNEQEGVPSVFNPPPSRPLQVNTADHRIYSYVVSRPQPRGLLGWGYYLIMLPFRFTYYTILDIFRFALRFIRPDPRSRVTDPVGDIVSFMHSFEEKYGRAHPVFYQGTYSQALNDAKRELRFLLVYLHGDDHQDSDEFCRNTLCAPEVISLINTRMLFWACSTNKPEGYRVSQALRENTYPFLAMIMLKDRRMTVVGRLEGLIQPDDLINQLTFIMDANQTYLVSERLEREERNQTQVLRQQQDEAYLASLRADQEKERKKREERERKRRKEEEVQQQKLAEERRRQNLQEEKERKLECLPPEPSPDDPESVKIIFKLPNDSRVERRFHFSQSLTVIHDFLFSLKESPEKFQIEANFPRRVLPCIPSEEWPNPPTLQEAGLSHTEVLFVQDLTDE

Reference: publication doi:10.1101/2024.07.16.603632
